The chains behind the UniProt entries cited, without tags or fusion partners. Where a name states a change or a piece, a line headed by the entry shows the natural chain unless it says otherwise.
UniProt P51450: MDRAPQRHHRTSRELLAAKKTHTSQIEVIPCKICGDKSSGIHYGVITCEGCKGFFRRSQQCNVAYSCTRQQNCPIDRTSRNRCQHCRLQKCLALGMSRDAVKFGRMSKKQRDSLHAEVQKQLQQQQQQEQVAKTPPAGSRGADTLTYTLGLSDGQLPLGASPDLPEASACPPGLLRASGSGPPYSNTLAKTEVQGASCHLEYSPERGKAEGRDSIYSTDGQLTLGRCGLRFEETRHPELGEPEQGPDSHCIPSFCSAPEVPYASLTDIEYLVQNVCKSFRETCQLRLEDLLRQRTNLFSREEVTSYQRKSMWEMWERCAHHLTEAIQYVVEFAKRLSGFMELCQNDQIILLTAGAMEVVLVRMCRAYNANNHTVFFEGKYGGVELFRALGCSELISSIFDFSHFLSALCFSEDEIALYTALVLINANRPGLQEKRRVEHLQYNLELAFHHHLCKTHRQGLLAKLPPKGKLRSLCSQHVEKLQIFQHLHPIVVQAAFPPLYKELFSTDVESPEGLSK

Several values for one entry are separate records, joined by “and”; a condition that tells them apart may be missing. Equal values may be shown once. Among all 310,000 compounds or so, about 17,000 (5.5%) were called active. Inconclusive means that the source gave no clear call. Such entries were picked first, then a sample of the others. Calls follow the shape of the dose curve; as a rule, active = well fitted inhibition curve with a large enough effect; inconclusive = small, poorly fitted or top-dose-only effect, or effect the other way; inactive = no such curve, though single readings can be large or run the other way. A potency beside an inconclusive call is a rough fit, not a confirmed value.
What follows are molecules tested against Nuclear receptor ROR-gamma (Mus musculus) (UniProt P51450) (assay: qHTS for inhibitors of ROR gamma transcriptional activity). Conditions: Drosophila S2 Gal4-RORgamma UAS-luciferase reporter, 20 h; series mostly up to 53.6 µM.
In short: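 Luciferase reporter read in Schneider cells carrying Gal4-RORγ (mouse) and UAS-Photinus luciferase; cells given compound 1 h before 700 uM copper sulfate induction, then incubated 20 h at ambient temperature.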
For `CCN(Cc1cc2cc(OC)ccc2[nH]c1=O)C(=O)c1ccncc1`, the Potency was inconclusive: 20 µM [inhibitor, single point].
In the case of `CC(=O)c1ccc(NC(=O)CSCC(=O)Nc2ccc3ccccc3c2)cc1`, the Potency is reported as “inactive”.
In the case of `Clc1ccc(COn2c(-c3ccc(Cl)cc3)nc3ccccc32)cc1`, the Potency is reported as active: 11.2 µM.
In the case of `CCOC(=O)Cc1csc(NC(=O)CSc2nnc(-c3ccncc3)o2)n1`, the Potency is reported as inconclusive: 11.2 µM [inhibitor, single point].
`C=C(C)CNC(=S)Nc1nc2c(cc1C(=O)OCC)CCCC2` was tested, and the Potency was active: 5.01 µM.
In the case of `CCN(CC)c1ccc(/C=N/NC(=O)c2ccc(O)cc2)cc1`, the Potency is reported as active: 794 nM and active: 1.12 µM.
`Clc1ccc(/C=N/Nc2nnc(Cl)c3ccccc23)cc1` was tested, and the Potency was inconclusive: 1.26 µM [inhibitor, full curve].
In the case of `O=C(CN1CCCC1)Nc1ccc(NC(=O)Nc2ccccc2Cl)cc1`, the Potency is reported as “inactive”.
With `O=S(=O)(Nc1cccc(-n2cnnn2)c1)c1ccc(Cl)cc1` the Potency was inconclusive: 14.1 µM [activator, single point].
For `COc1cc2ccccc2cc1C(=O)Nc1nccs1`, the Potency was inconclusive: 15.8 µM [inhibitor, single point].
For `COc1ccc(NS(=O)(=O)c2ccc(N3CCCC3=O)cc2)cn1`, the Potency was “inactive”.
In the case of `COc1ccc(C(=O)C2C(c3ccc(-c4ccccc4[N+](=O)[O-])o3)NC(=O)NC2(O)C(F)(F)F)cc1` (stereo unspecified), the Potency is reported as “inactive”.
For `CC1CN(S(=O)(=O)c2cccc(C(=O)OCc3cc(=O)oc4cc(O)ccc34)c2)CC(C)O1` (stereo unspecified), the Potency was “inactive”.
In the case of `CCOC(=O)N1CCC(NC(=O)c2cc(S(=O)(=O)N3CCC4(CC3)OCCO4)ccc2F)CC1`, the Potency is reported as inconclusive: 14.1 µM [activator, single point].
With `O=C(NCc1cccs1)c1cccn2c(=O)c3sccc3nc12` the Potency was “inactive”.
For `O=C(NCCC1CCCC1)c1cccs1`, the Potency was inconclusive: 2.82 µM [activator, full curve].
`COC(=O)c1c(C)cc(C)c2c1CC(C)(C)C2=O` was tested, and the Potency was “inactive”.
For `CCOC(=O)CN1C(=O)/C(=C2\SC(=S)N(NC(=O)c3cccnc3)C2=O)c2ccccc21`, the Potency was inconclusive: 15.8 µM [inhibitor, partial curve].
For `CCCCCOc1ccc(CSC(=N)N)cc1[N+](=O)[O-]`, the Potency was inconclusive: 20 µM [inhibitor, partial curve, poor fit].
With `Cc1ccc(CNC(=O)CCCCCNc2nc(=S)[nH]c3ccccc23)cc1` the Potency was inconclusive: 28.2 µM [inhibitor, single point].
In the case of `COCCN(CCOC)S(=O)(=O)c1ccc(C(=O)Nc2nc3c(s2)CCc2ccccc2-3)cc1`, the Potency is reported as inconclusive: 14.1 µM [inhibitor, single point].
`Cc1cc(C(=O)N/N=C/c2ccc(-c3ccccc3Cl)o2)n[nH]1` was tested, and the Potency was inconclusive: 35.5 µM [inhibitor, single point].
For `COc1ccc(/C=C/c2nc3ccccc3c(=O)o2)cc1`, the Potency was active: 4.47 µM.
With `CCC1(CC)Cc2ccccc2-c2nc(NN)[nH]c(=O)c21` the Potency was active: 10 µM.
For `CC(C)c1onc(C(=O)Nc2sc3c(c2C#N)CCC3)c1[N+](=O)[O-]`, the Potency was inconclusive: 11.2 µM [inhibitor, single point].
For `C[C@H](C(=O)CC(=O)OC(C)(C)C)[C@H](O)c1ccccc1`, the Potency was “inactive and inconclusive: 708 nM [activator, single point]”.
With `Brc1ccc2nc(CSc3ncn[nH]3)cn2c1` the Potency was inconclusive: 2.51 µM [activator, partial curve].
For `CN(C)c1ccc(N=NS(=O)(=O)O)cc1`, the Potency was “inactive”.
`CN(C)C1(CN=Cc2cc(Cl)cc([N+](=O)[O-])c2O)CCCCC1` was tested, and the Potency was inconclusive: 14.1 µM [inhibitor, single point].
`Cc1cccc2cc(CN(CCCO)C(=O)Nc3cccc(Cl)c3)c(=O)[nH]c12` was tested, and the Potency was “inactive”.
For `Cc1nn(-c2ccccc2)c2c1C(c1ccc(Br)s1)C(C#N)=C(N)O2` (stereo unspecified), the Potency was inconclusive: 35.5 µM [inhibitor, single point].
For `COc1ccc(C2C(C(=O)NCCN3CCOCC3)c3ccccc3C(=O)N2C2CCCCC2)cc1` (stereo unspecified), the Potency was inconclusive: 0.112 µM [inhibitor, full curve, poor fit].
For `CCC(c1nnnn1Cc1cccs1)N1CCN(C2CCCC2)CC1` (stereo unspecified), the Potency was “inactive”.
In the case of `COC(=O)c1cc(=O)nc2sc(-c3ccc(F)cc3)nn12`, the Potency is reported as “inactive”.
With `O=C(O)CC(CCc1ccccc1)OC1OC(CO)C(O)C(O)C1O` (stereo unspecified) the Potency was “inactive”.
In the case of `CSc1cccc(NC(=S)N2CCC(c3ccccc3)C2)c1` (stereo unspecified), the Potency is reported as inconclusive: 25.1 µM [inhibitor, single point].
In the case of `COc1ccc(C2=NS(=O)(=O)N(C)C(C(=O)Nc3ccc(C)cc3)=C2)cc1`, the Potency is reported as inconclusive: 17.8 µM [activator, single point].
In the case of `CCOc1ccc(NC2=C(Cl)C(=O)N(C3CCCCC3)C2=O)cc1`, the Potency is reported as “inactive”.
With `CN(C)C=O` the Potency was “inactive”.
For `Cc1ccc(Cn2nnc3c(=O)[nH]c(C4CCN(S(=O)(=O)c5ccc(C)cc5)CC4)nc32)cc1`, the Potency was inconclusive: 31.6 µM [activator, single point].
`CN1/C(=C\C(=S)NC(=O)c2ccc([N+](=O)[O-])cc2)C(C)(C)c2ccccc21` was tested, and the Potency was active: 3.55 µM.
With `COc1ccc(-c2n[nH]c(C)c2-c2cscn2)c(O)c1` the Potency was inconclusive: 22.4 µM [inhibitor, single point].
For `CC1CCN(S(=O)(=O)c2ccc(NC(=O)CN3CCN(C)CC3)cc2)CC1`, the Potency was inconclusive: 0.158 µM [activator, full curve, poor fit].
With `Cc1cccc(N2C(=S)NC3c4cc(Cl)ccc4OC2(C)C3C(=O)N(C)C)c1` (stereo unspecified) the Potency was inconclusive: 11.2 µM [inhibitor, single point].
For `CCC1CCCCN1C(=S)NCc1ccccc1` (stereo unspecified), the Potency was inconclusive: 35.5 µM [inhibitor, single point].
With `COc1ccc(Nc2nc(C)cc(C)c2C(N)=O)c(OC)c1` the Potency was inconclusive: 6.31 µM [inhibitor, single point].
`COc1cccc([C@@H]2Oc3ccc(Br)cc3C(=O)[C@H]2OC(=O)NCCOc2ccccc2)c1` was tested, and the Potency was “inactive”.
`Cn1nc(-c2ccccc2)c(CO)c1Oc1ccc(F)cc1` was tested, and the Potency was “inactive”.
For `C[C@H](NC(=O)c1[nH]cnc1C(=O)Nc1ccc(CNC(=O)OC(C)(C)C)cc1)C(=O)OCc1ccccc1`, the Potency was inconclusive: 25.1 µM [inhibitor, single point].
In the case of `Cc1ccc(C(NC(=O)NC(C)c2ccccc2)C(Cl)(Cl)Cl)cc1F` (stereo unspecified), the Potency is reported as “inactive”.
For `CC1(C)CC(=O)C2=C(C1)NC1=C(C(=O)c3ccccc31)C2c1ccc(Cl)cc1` (stereo unspecified), the Potency was inconclusive: 35.5 µM [activator, single point].
In the case of `COC(=O)CCCC1=CC2=C(c3ccccc3)C(=O)C(C)(OC(=O)C3CCCC3)C(=O)C2=CN1C1CCCCC1` (stereo unspecified), the Potency is reported as inconclusive: 5.62 µM [inhibitor, single point].
For `CCN1C(=O)/C(=C\c2nc3ccccc3c(=O)n2CC)c2ccccc21`, the Potency was “inactive”.
With `S=C(Nc1ccc2c(c1)OCO2)Nc1ccccc1Cl` the Potency was inconclusive: 35.5 µM [inhibitor, single point].
With `CCCN1C(=O)c2ccccc2NC1c1ccc(Cl)c(Cl)c1` (stereo unspecified) the Potency was “inactive”.
In the case of `Cc1nc(-c2cccc(-c3noc(C)n3)c2)no1`, the Potency is reported as inconclusive: 2.24 µM [activator, full curve, poor fit].
With `COc1ccc2[nH]cc(CCNc3ccnc(-c4cccc(C#N)c4)n3)c2c1` the Potency was inconclusive: 15.8 µM [activator, single point].
For `CCc1ccc(CCC(=O)Nc2sc(C)c(C)c2C(=O)OC)o1`, the Potency was inconclusive: 22.4 µM [inhibitor, single point].
`COc1ccc(N2CCN(CCCNC(=O)C3CCCN(S(=O)(=O)c4cnc[nH]4)C3)CC2)cc1` (stereo unspecified) was tested, and the Potency was inconclusive: 0.141 µM [inhibitor, full curve, poor fit].
For `CC(C)(C)[C@H]1CCC(=O)N([C@H](CSc2ccccc2)Cc2ccccc2)CC1`, the Potency was inconclusive: 35.5 µM [activator, single point].
For `Cc1ccc2cc(CN(CC3CCCO3)C(=O)C(C)C)c(=O)[nH]c2c1` (stereo unspecified), the Potency was inconclusive: 2.82 µM [activator, full curve].
With `COc1ccccc1N1CCN(/N=C\c2ccc(C)o2)CC1` the Potency was inconclusive: 35.5 µM [inhibitor, single point].
For `N#C/C(=C(/O)COC(=O)CCc1ccc(S(=O)(=O)N2CCOCC2)cc1)c1nc2ccccc2[nH]1`, the Potency was active: 8.91 µM.
For `CCn1c(-c2c[nH]c3ccccc23)n[nH]c1=S`, the Potency was inconclusive: 20 µM [inhibitor, partial curve].
With `CC(=O)Nc1ccc(SCC(=O)Nc2cc(C)on2)cc1` the Potency was inconclusive: 12.6 µM [inhibitor, single point].
In the case of `O=C(CCCn1c(=S)[nH]c2ccccc2c1=O)N1CCCCC1`, the Potency is reported as inconclusive: 17.8 µM [inhibitor, single point].
With `CC12COC3(C(N)=O)CC1CCC32C` (stereo unspecified) the Potency was inconclusive: 3.98 µM [inhibitor, single point].
`COc1cc(C2NC(=O)NC(C)=C2C(=O)OCc2ccc(C)cc2)cc(OC)c1OC` (stereo unspecified) was tested, and the Potency was inconclusive: 17.8 µM [activator, single point].
For `CCCCCCn1c(-c2ccco2)nc2oc3cc(OC)ccc3c(=O)c2c1=O`, the Potency was inconclusive: 6.31 µM [inhibitor, single point].
For `Cc1ccc(-c2nn(-c3ccccc3)cc2CO)cc1`, the Potency was “inactive”.
With `CCOC(=O)c1nn(-c2ccc(Br)cc2)cc1C(=O)c1cccc2ccccc12` the Potency was inconclusive: 2 µM [activator, partial curve, poor fit].

Reference: PubChem BioAssay AID2551 (National Center for Advancing Translational Sciences (NCATS), 2010)
Also: nearly all actives have a fitted effect of over 60% in size.
Potency is read from the fitted curve at half-maximal effect.
